Experimental data from patent publication US20140093514A1.

Biological target: NY-ESO-1-His
Assay: Western blot after gradient SDS-PAGE, 100 µg of protein, HRP goat anti-human IgG, exposure 1 min

binding: no binding (tested: 1 µg/ml)
B1: 21B4 (antibody, V domains shown)
VH: QVQLVESGGGVVQPGRSLRLSCTASGFRFRSHGMHWVRQAPGKGLEWVAVISYDGNNKLYADSVKGRITISRDNSKNTLFLQMNNVRAEDTAVYYCASPYTSDWQYFQYWGQGTLVIVSS
VL: EIVMTQSPATLSVSPGERATFSCRASQNISTTLAWYQQKPGQAPRLLIYDTSTRATGIPARFSGSGSGTEFTLTISSLQSEDLAVYYCQQSNSWPLTFGGGTKVEIK

These are yes or no findings as the source states them, for the method shown.
